PubChem BioAssay AID1259405, NCATS | 2018

Aim: 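Silenced genes that increase secreted GFP made by CHO cells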 (primary screen)
Cells: Chinese hamster CHO-K1 ovary cells with stable secreted eGFP expression
Reagent: single siRNA against mouse genes, 0.8 pmol siRNA per well (2 µl of 400 nM stock)
Timing: 3 days
Measured: 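Per-well intracellular GFP measured by laser scanning cytometry, plus viability from ATP luminescence, each relative to plate median of non-targeting control wells, in %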
Scale: GFP, % of control: higher = more GFP per well, higher productivity; viability (ATP), % of control: higher = more viable cells (more ATP)
Active means: 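Called active when intracellular GFP, relative to negative control, is at or above 120%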
Here is an unselected part of about 50,000 reagents tested. Of all reagents, about 4,000 (8%) got an active call. 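Mouse siRNA library applied to hamster cells; one well for each siRNA.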 A number with no mark means an inactive call. The numbers tell different reagents against one gene apart.

| target gene | siRNA no. | GFP, % of control | viability (ATP), % of control |
| --- | --- | --- | --- |
| Rplp1 | 1 | 108 | 70.1 |
| Rplp1 | 2 | 64.8 | 50.5 |
| Rplp1 | 3 | 47.7 | 41.7 |
| A130050O07Rik | 1 | 44.5 | 35.8 |
| A130050O07Rik | 2 | 37.6 | 39.8 |
| A130050O07Rik | 3 | 91.2 | 86.6 |
| Psmd7 | 1 | 74.7 | 70.7 |
| Psmd7 | 2 | 86.2 | 77.5 |
| Zdhhc18 | 1 | 72.3 | 78.6 |
| Zdhhc18 | 2 | 57.6 | 43.1 |
| Zdhhc18 | 3 | 59.5 | 69.1 |
| Pear1 | 1 | 119 | 121 |
| Pear1 | 2 | 66.4 | 77.7 |
| Tnks | 1 | 86.1 | 107 |
| Tnks | 2 | 82 | 68.1 |
| Tnks | 3 | 88.9 | 76.4 |
| Tnks | 4 | 93.3 | 117 |
| Tnks | 5 | 73.9 | 115 |
| Tnks | 6 | 97.2 | 107 |
| Zfp276 | 1 | 56.1 | 88.8 |
| Zfp276 | 2 | 71.7 | 84.1 |
| Zfp276 | 3 | 99.9 | 108 |
| Spata17 | 1 | 36.7 | 88.4 |
| Spata17 | 2 | 91.7 | 78.5 |
| Spata17 | 3 | 72.2 | 80.8 |
| Zw10 | 1 | 56.7 | 32.4 |
| Zw10 | 2 | 83.6 | 80.2 |
| Zw10 | 3 | 74 | 96 |
| Parp8 | 1 | 70.6 | 93.9 |
| Parp8 | 2 | 103 | 89.4 |
| Parp8 | 3 | 120 (active) | 94.7 |
| Crot | 1 | 94.6 | 83.3 |
| Crot | 2 | 117 | 66.1 |
| Crot | 3 | 112 | 91.3 |
| Lamp3 | 1 | 57.1 | 68.6 |
| Lamp3 | 2 | 78.2 | 82.7 |
| Lamp3 | 3 | 94.2 | 88.3 |
| Hnrnpa1 | 1 | 81 | 65 |
| Hnrnpa1 | 2 | 102 | 93.5 |
| Hnrnpa1 | 3 | 61.1 | 69.1 |
| Rpl6 | 1 | 42.1 | 30.2 |
| Rpl6 | 2 | 47.8 | 22.7 |
| Rpl6 | 3 | 30.7 | 31.2 |
| P3h3 | 1 | 90.1 | 107 |
| P3h3 | 2 | 71.6 | 88 |
| Gsdma2 | 1 | 71.9 | 44.6 |
| Gsdma2 | 2 | 65.4 | 129 |
| Gsdma2 | 3 | 93.4 | 114 |
| Aff1 | 1 | 87.4 | 82.1 |
| Aff1 | 2 | 67.8 | 68.4 |
| Aff1 | 3 | 82.4 | 113 |
| Or2at4 | 1 | 78.1 | 85.9 |
| Or2at4 | 2 | 73.6 | 103 |
| Or2at4 | 3 | 64 | 67.7 |
| Tube1 | 1 | 37.3 | 86.2 |
| Tube1 | 2 | 40.4 | 56.6 |
| B3gat2 | 1 | 112 | 124 |
| B3gat2 | 2 | 16.1 | 45 |
| B3gat2 | 3 | 94.2 | 103 |
| Jdp2 | 1 | 104 | 85.9 |
| Jdp2 | 2 | 66.4 | 61.4 |
| Jdp2 | 3 | 109 | 99.5 |
| Or13f5 | 1 | 126 (active) | 95.1 |
| Or13f5 | 2 | 105 | 75.7 |
| Or13f5 | 3 | 58.2 | 27.6 |
| Enah | 1 | 46.3 | 41.1 |
| Enah | 2 | 58.5 | 70.2 |
| Enah | 3 | 85.3 | 57.2 |
| Phactr4 | 1 | 143 (active) | 89.5 |
| Phactr4 | 2 | 120 (active) | 68.1 |
| Phactr4 | 3 | 92.7 | 64.4 |
| Pqbp1 | 1 | 106 | 145 |
| Pqbp1 | 2 | 51.8 | 87.8 |
| Pqbp1 | 3 | 81.6 | 90.1 |
| Rsad1 | 1 | 79.5 | 80.7 |
| Rsad1 | 2 | 35.4 | 42.8 |
| Rsad1 | 3 | 67.6 | 59.5 |
| Gcn1 | 1 | 58.5 | 52.5 |
| Gcn1 | 2 | 42.1 | 51.1 |
| Gcn1 | 3 | 47.8 | 80.6 |
| Lta4h | 1 | 106 | 96.9 |
| Lta4h | 2 | 51 | 82.5 |
| Lta4h | 3 | 66.4 | 56.7 |
| Or12k8 | 1 | 72 | 72.3 |
| Or12k8 | 2 | 59.9 | 79.2 |
| Or12k8 | 3 | 94 | 63.8 |

Reagents listed so far called active (4):
| target gene | siRNA no. | GFP, % of control | viability (ATP), % of control |
| --- | --- | --- | --- |
| Parp8 | 3 | 120 (active) | 94.7 |
| Or13f5 | 1 | 126 (active) | 95.1 |
| Phactr4 | 1 | 143 (active) | 89.5 |
| Phactr4 | 2 | 120 (active) | 68.1 |
